No constants are given. Whether binding was seen depends on the method and setting. Binding seen in cells or lysates may run through a third protein. Some binding calls cover weakened binding; strength is not graded here. Tags and fused reporters may be left off the sequences shown.
Target: T1, HDAC3 (histone deacetylase 3), endogenous in cardiomyocytes (rat (endogenous in neonatal rat cardiomyocytes)) (UniProt Q6P6W3)
T1 sequence: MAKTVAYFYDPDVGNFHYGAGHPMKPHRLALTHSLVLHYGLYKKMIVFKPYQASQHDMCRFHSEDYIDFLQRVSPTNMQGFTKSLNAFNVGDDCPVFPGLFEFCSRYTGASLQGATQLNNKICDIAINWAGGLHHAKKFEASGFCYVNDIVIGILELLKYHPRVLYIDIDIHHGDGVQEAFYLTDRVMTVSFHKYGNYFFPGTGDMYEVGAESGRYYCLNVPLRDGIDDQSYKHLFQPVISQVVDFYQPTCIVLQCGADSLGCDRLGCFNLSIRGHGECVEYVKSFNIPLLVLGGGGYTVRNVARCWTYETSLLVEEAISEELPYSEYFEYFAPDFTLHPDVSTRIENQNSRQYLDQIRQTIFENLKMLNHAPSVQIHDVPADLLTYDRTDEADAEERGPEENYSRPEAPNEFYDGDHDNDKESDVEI
Assay: co-IP; endogenous proteins in cardiomyocytes, control or HG/HP, with control or Decr1 siRNA

Sequences of proteins named here, by UniProt entry; tags and fusion partners are left off. Residues count along the entry.
UniProt Q64428, residues 37-763: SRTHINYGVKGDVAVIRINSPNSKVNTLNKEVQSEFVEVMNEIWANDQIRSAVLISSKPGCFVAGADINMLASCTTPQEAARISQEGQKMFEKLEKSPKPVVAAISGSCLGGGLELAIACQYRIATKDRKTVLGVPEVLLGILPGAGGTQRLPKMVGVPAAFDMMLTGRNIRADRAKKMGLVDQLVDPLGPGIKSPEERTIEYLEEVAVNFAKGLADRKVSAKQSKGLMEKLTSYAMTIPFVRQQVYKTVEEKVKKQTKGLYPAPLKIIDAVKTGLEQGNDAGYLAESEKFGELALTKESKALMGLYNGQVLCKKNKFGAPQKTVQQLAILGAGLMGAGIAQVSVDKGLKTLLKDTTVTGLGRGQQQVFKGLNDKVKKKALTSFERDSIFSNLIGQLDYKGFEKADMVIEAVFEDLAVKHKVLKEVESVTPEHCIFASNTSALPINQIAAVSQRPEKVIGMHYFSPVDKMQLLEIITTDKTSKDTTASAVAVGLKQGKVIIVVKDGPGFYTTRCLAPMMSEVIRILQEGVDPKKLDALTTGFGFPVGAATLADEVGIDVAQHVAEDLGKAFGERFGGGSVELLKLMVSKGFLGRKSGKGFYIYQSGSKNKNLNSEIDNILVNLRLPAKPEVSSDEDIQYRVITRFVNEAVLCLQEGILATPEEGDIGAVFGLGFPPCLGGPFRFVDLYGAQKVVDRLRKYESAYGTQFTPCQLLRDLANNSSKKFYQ

## HADHA (hydroxyacyl-CoA dehydrogenase trifunctional multienzyme complex subunit alpha), endogenous in cardiomyocytes (from UniProt Q64428 37-763)
  binding: binds

Source: publication PMC11886612
